# The list shows only some results of the screen, not a fair sample: it gathers tests that were run many times, whatever their T/C, doses with no T/C, and many T/C values between a quarter and a half above the control. Further doses and runs are listed elsewhere. T/C: endpoint of the treated group in % of that of the vehicle group. Some entries give survivors of the animals treated and no T/C: the source files T/C as zero there, which appears to mark a toxic dose or a test without result, not a measured value. Some doses without a T/C left all or most animals alive at the check, yet need not have been tolerated: the source hardly ever lists a survival T/C far under the control, and the zero likely stands for such cases as well. Counts of survivors are from the toxicity check (mostly the fifth day) where no day follows; animals may have died later. Schedule codes are those of the source, read here as Q, the interval in days (D) or hours (H), X, the number of doses. Some structures stand for samples that the source files as different forms (salt, stereo form or complex); doses refer to the form tested. Counts like (3×) count equal records among those shown. Some entries were tested several times; the results are listed from low to high. Where survival is the endpoint, the PubChem record calls one and a half times the control and up active, and a quarter to a half above the control has no call in these data; cut-offs in other NCI protocols can differ. Some T/C values carry the count of animals alive at the toxicity check (mostly the fifth day); where none is given, no animal had died by that day.
# System: BDF1 mice, B16 melanoma ip, median survival T/C
# Assay: NCI In Vivo Anticancer Drug Screen. Data for tumor model B16 Melanoma (intraperitoneal) in B6D2F1 (BDF1) mice
# Details: T/C endpoint: median survival time, higher T/C = longer survival
# Method in brief: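 Read-out: survival or tumor size, given as treated/control ratio. Controls received vehicle only; animals bore transplantable tumors.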
smiles,measurement,setting,value
COc1cc(NS(C)(=O)=O)ccc1Nc1c2ccccc2nc2ccccc12,T/C,"dose: 0.25 mg/kg/injection, schedule: Q01DX009 (ip), vehicle: Klucel (hydroxypropylcellulose) (HPC)",138 % of control
same,T/C,"dose: 0.25 mg/kg/injection, schedule: Q01DX009 (ip), vehicle: other",126 % of control (2×)
same,T/C,"dose: 0.4 mg/kg/injection, schedule: Q01DX009 (ip), vehicle: saline",140 % of control
same,T/C,"dose: 0.5 mg/kg/injection, schedule: Q01DX009 (ip), vehicle: Klucel (hydroxypropylcellulose) (HPC)",126 % of control
same,T/C,"dose: 0.5 mg/kg/injection, schedule: Q01DX009 (ip), vehicle: clinical formulation",146 % of control (2×)
same,T/C,"dose: 0.5 mg/kg/injection, schedule: Q01DX009 (ip), vehicle: other",128 (2×) and 129 % of control
same,T/C,"dose: 0.6 mg/kg/injection, schedule: Q01DX009 (ip), vehicle: saline",145 % of control
same,T/C,"dose: 1.0 mg/kg/injection, schedule: Q01DX009 (ip), vehicle: other, evaluated on day 45",161 % of control
same,T/C,"dose: 1.0 mg/kg/injection, schedule: Q01DX009 (ip), vehicle: other, evaluated on day 60",145 (2×) and 161 % of control
same,T/C,"dose: 1.0 mg/kg/injection, schedule: Q01DX009 (ip), vehicle: other, evaluated on day 70",126 % of control [9 of 10 alive]
same,T/C,"dose: 1.0 mg/kg/injection, schedule: Q04DX003 (ip), vehicle: other, evaluated on day 8",124 % of control
same,T/C,"dose: 1.0 mg/kg/injection, schedule: Q04DX003 (ip), vehicle: other, evaluated on day 45",160 % of control
same,T/C,"dose: 1.0 mg/kg/injection, schedule: Q04DX003 (ip), vehicle: other, evaluated on day 60",110 and 129 % of control
same,T/C,"dose: 2.0 mg/kg/injection, schedule: Q01DX001 (ip), vehicle: lactic acid",131 % of control
same,T/C,"dose: 2.0 mg/kg/injection, schedule: Q01DX009 (ip), vehicle: other, evaluated on day 45",158 % of control
same,T/C,"dose: 2.0 mg/kg/injection, schedule: Q01DX009 (ip), vehicle: other, evaluated on day 60",175 [9 of 10 alive] and 198 % of control
same,T/C,"dose: 2.0 mg/kg/injection, schedule: Q01DX009 (ip), vehicle: other, evaluated on day 70",131 and 142 % of control
same,T/C,"dose: 2.0 mg/kg/injection, schedule: Q04DX003 (ip), vehicle: other, evaluated on day 8",117 % of control
same,T/C,"dose: 2.0 mg/kg/injection, schedule: Q04DX003 (ip), vehicle: other, evaluated on day 10",112 % of control
same,T/C,"dose: 2.0 mg/kg/injection, schedule: Q04DX003 (ip), vehicle: other, evaluated on day 45",156 % of control
same,T/C,"dose: 2.0 mg/kg/injection, schedule: Q04DX003 (ip), vehicle: other, evaluated on day 60","131, 132, 137 % of control"
same,T/C,"dose: 3.0 mg/kg/injection, schedule: Q01DX009 (ip), vehicle: other",136 % of control
same,T/C,"dose: 4.0 mg/kg/injection, schedule: Q01DX001 (ip), vehicle: lactic acid",134 % of control
same,T/C,"dose: 4.0 mg/kg/injection, schedule: Q01DX009 (ip), vehicle: Klucel (hydroxypropylcellulose) (HPC)","180, 199, 278, 282 % of control"
same,survivor count,"dose: 4.0 mg/kg/injection, schedule: Q01DX009 (ip), vehicle: clinical formulation",10 of 10 (2×)
same,survivor count,"dose: 4.0 mg/kg/injection, schedule: Q01DX009 (ip), vehicle: lactic acid",10 of 10
same,T/C,"dose: 4.0 mg/kg/injection, schedule: Q01DX009 (ip), vehicle: other, evaluated on day 60",217 and 243 % of control
same,T/C,"dose: 4.0 mg/kg/injection, schedule: Q01DX009 (ip), vehicle: other, evaluated on day 70",137 % of control
same,survivor count,"dose: 4.0 mg/kg/injection, schedule: Q01DX009 (ip), vehicle: other",10 of 10 (3×)
same,survivor count,"dose: 4.0 mg/kg/injection, schedule: Q03HX016 (oral), vehicle: lactic acid",6 of 10
same,survivor count,"dose: 4.0 mg/kg/injection, schedule: Q03HX024 (oral), vehicle: lactic acid",0 of 10
same,T/C,"dose: 4.0 mg/kg/injection, schedule: Q04DX003 (ip), vehicle: other, evaluated on day 8",124 % of control
same,T/C,"dose: 4.0 mg/kg/injection, schedule: Q04DX003 (ip), vehicle: other, evaluated on day 10",122 % of control
same,T/C,"dose: 4.0 mg/kg/injection, schedule: Q04DX003 (ip), vehicle: other, evaluated on day 45",150 % of control
same,T/C,"dose: 4.0 mg/kg/injection, schedule: Q04DX003 (ip), vehicle: other, evaluated on day 60",157 and 159 % of control
same,T/C,"dose: 4.0 mg/kg/injection, schedule: Q04DX003 (ip), vehicle: other, evaluated on day 70",137 % of control
same,survivor count,"dose: 5.0 mg/kg/injection, schedule: Q01DX009 (ip), vehicle: saline",10 of 10
same,survivor count,"dose: 6.0 mg/kg/injection, schedule: Q01DX009 (ip), vehicle: Klucel (hydroxypropylcellulose) (HPC)",10 of 10
same,survivor count,"dose: 8.0 mg/kg/injection, schedule: Q01DX009 (ip), vehicle: Klucel (hydroxypropylcellulose) (HPC)",9 of 10 and 10 of 10 (2×)
same,survivor count,"dose: 8.0 mg/kg/injection, schedule: Q01DX009 (ip), vehicle: clinical formulation",10 of 10 (2×)
same,survivor count,"dose: 8.0 mg/kg/injection, schedule: Q01DX009 (ip), vehicle: lactic acid",10 of 10
same,survivor count,"dose: 8.0 mg/kg/injection, schedule: Q01DX009 (ip), vehicle: other",8 of 10 and 10 of 10 (5×)
same,survivor count,"dose: 8.0 mg/kg/injection, schedule: Q01DX009 (oral), vehicle: lactic acid",9 of 10
same,survivor count,"dose: 8.0 mg/kg/injection, schedule: Q03HX016 (oral), vehicle: lactic acid",1 of 10
same,survivor count,"dose: 8.0 mg/kg/injection, schedule: Q03HX024 (oral), vehicle: lactic acid",0 of 10
same,T/C,"dose: 8.0 mg/kg/injection, schedule: Q04DX003 (ip), vehicle: other, evaluated on day 8",130 % of control
same,T/C,"dose: 8.0 mg/kg/injection, schedule: Q04DX003 (ip), vehicle: other, evaluated on day 10",129 % of control
same,T/C,"dose: 8.0 mg/kg/injection, schedule: Q04DX003 (ip), vehicle: other, evaluated on day 45",89 % of control
